Legend:
post-menopausal women [1] = assay: Dose-finding study: weekly frequency of moderate to severe VMS; format: in vivo
Text: To determine the Minimum Effective Dose (MED), firstly the selection criteria required that patients presented at least 7 moderate to severe VMS/day or at least 50 moderate to severe VMS/week in the week preceding randomization. Secondly, a placebo group was included in a double-blind fashion. Thirdly, the total patient number was such that statistical significance could be obtained between separate arms of the study. Fourthly, the absolute change from baseline in weekly frequency of moderate to severe VMS was taken into account. An analysis of covariance (ANCOVA) was performed based on the untransformed change in weekly frequency of moderate to severe VMS from baseline. Finally, the change in severity from baseline was evaluated. For this, the Severity Scoring System of VMS was documented by the subjects as follows: • a score of Mild (1) for a sensation of heat without sweating; • a score of Moderate (2) for a sensation of heat with sweating/the subject is able to continue activity; and • a score of Severe (3) fora sensation of heat with sweating/which causes cessation of activity.
Enrolment was approximately 18 months. Individual subject participation was up to 27 weeks: up to 6 weeks pre-screening and washout, up to 4 weeks screening and run-in period, up to 91 days (13 weeks) of E4/placebo treatment followed by 2 weeks (14 days) of progestin therapy and a Follow up visit 1 week after completion of progestin therapy in non-hysterectomised subjects only.
This was a prospective, multicentre, randomised, placebo-controlled, double-blinded, dose-finding study.
Eligible subjects were hysterectomised and non-hysterectomised post-menopausal women aged 40 to 65 years, inclusive, presenting at least 7 moderate to severe hot flushes/day or at least 50 moderate to severe hot flushes/week.
The subjects have met all of the following inclusion criteria at the randomization visit. These criteria were assessed during the screening period: • 1. Women aged 40 to 65 years, inclusive, presenting at least 7 moderate to severe hot flushes/day or at least 50 moderate to severe hot flushes/week in the week preceding randomization. • 2. Body Mass Index (BMI) between 18.0 and 35.0 kg/m^2, inclusive. • 3. […]
In order to analyse the data recorded in this study, treatment groups have been compared using an ANCOVA (analysis of covariance) with respect to the change in weekly frequency of moderate to severe VMS from baseline to weeks 4 and 12. […]

post-menopausal women [2] = assay: Dose-finding study: hot flush weekly weighted score; format: in vivo
Experimental: Further, the terms “Hot Flush Weekly Weighted Score”, as used herein, corresponds to a score taking into account frequency and severity which is calculated by using the severity score (as calculated above): [(1×No. of mild VMS)+(2×No. of moderate VMS)+(3×No. of severe VMS)] during a 7 day period.
Such a weighted score was for example used by Notelovitz et al. (“Initial 17β-Estradiol Dose for Treating Vasomotor Symptoms”; Obstetrics and Gynaecology, Vol. 95(5), May 2000, p. 726-731). This score was used to generate the data included in Example 1 further below, under section A. c) “Hot Flush Weekly Weighted Score”.

SMILES: C[C@]12CC[C@@H]3c4ccc(O)cc4CC[C@H]3[C@@H]1[C@@H](O)[C@@H](O)[C@@H]2O [Estetrol, 1,3,5 (10)-estratrien-3,15alpha,16alpha,17beta-tetrol]
- Relative change in weekly frequency of moderate to severe VMS, difference with placebo (including 2.5 mg and 5 mg): p_value (post-menopausal women [1]; 10.0 mg vs 0 mg, week 4): 0.2615
- Relative change in weekly frequency of moderate to severe VMS, difference with placebo (including 2.5 mg and 5 mg): p_value (post-menopausal women [1]; 10.0 mg vs 0 mg, week 12): 0.1798
- Relative change in weekly frequency of moderate to severe VMS, difference with placebo (including 2.5 mg and 5 mg): p_value (post-menopausal women [1]; 15.0 mg vs 0 mg, week 4): 0.00218
- Relative change in weekly frequency of moderate to severe VMS, difference with placebo (including 2.5 mg and 5 mg): p_value (post-menopausal women [1]; 15.0 mg vs 0 mg, week 12): 0.00099
- Relative change in weekly weighted score, differences with placebo: p_value (post-menopausal women [2]; 2.5 mg vs 0 mg, week 4): 1.0000
- Relative change in weekly weighted score, differences with placebo: p_value (post-menopausal women [2]; 2.5 mg vs 0 mg, week 12): 0.6744
- Relative change in weekly weighted score, differences with placebo: p_value (post-menopausal women [2]; 5.0 mg vs 0 mg, week 4): 0.8833
- Relative change in weekly weighted score, differences with placebo: p_value (post-menopausal women [2]; 5.0 mg vs 0 mg, week 12): 0.8871
- Relative change in hot flush weekly weighted score, difference with placebo (including 2.5 mg and 5 mg): p_value (post-menopausal women [2]; 10.0 mg vs 0 mg, week 4): 0.4167
- Relative change in weekly weighted score, differences with placebo: p_value (post-menopausal women [2]; 10.0 mg vs 0 mg, week 4): 0.6745
- Relative change in hot flush weekly weighted score, difference with placebo (including 2.5 mg and 5 mg): p_value (post-menopausal women [2]; 10.0 mg vs 0 mg, week 12): 0.1404
- Relative change in weekly weighted score, differences with placebo: p_value (post-menopausal women [2]; 10.0 mg vs 0 mg, week 12): 0.7861
- Relative change in hot flush weekly weighted score, difference with placebo (including 2.5 mg and 5 mg): p_value (post-menopausal women [2]; 15.0 mg vs 0 mg, week 4): 0.00178
- Relative change in weekly weighted score, differences with placebo: p_value (post-menopausal women [2]; 15.0 mg vs 0 mg, week 4): 0.0267
- Relative change in hot flush weekly weighted score, difference with placebo (including 2.5 mg and 5 mg): p_value (post-menopausal women [2]; 15.0 mg vs 0 mg, week 12): 0.00097
- Relative change in weekly weighted score, differences with placebo: p_value (post-menopausal women [2]; 15.0 mg vs 0 mg, week 12): 0.0276

Reference: patent publication US12458651B2, “Compounds and their uses for alleviating menopause-associated symptoms” (ESTETRA SRL, priority 2018, dated 2025)
